Laboratory results as given in publication PMC7862700.
The list shows a part of the results, in another mix than the full data. At the low end of the ranking the order means little.

Amino acid sequences for entries named in this document (tags omitted). A change or cut given only in a name is not applied to a line headed by its entry.
UniProt Q01892: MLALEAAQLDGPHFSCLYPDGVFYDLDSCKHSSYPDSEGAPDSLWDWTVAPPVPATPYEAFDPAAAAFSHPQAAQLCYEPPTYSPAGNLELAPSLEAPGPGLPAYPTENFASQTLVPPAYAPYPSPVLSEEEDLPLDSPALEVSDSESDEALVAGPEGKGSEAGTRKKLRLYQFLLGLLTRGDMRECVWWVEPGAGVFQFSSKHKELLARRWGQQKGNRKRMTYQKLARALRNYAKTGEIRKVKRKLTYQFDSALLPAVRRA
UniProt P41161: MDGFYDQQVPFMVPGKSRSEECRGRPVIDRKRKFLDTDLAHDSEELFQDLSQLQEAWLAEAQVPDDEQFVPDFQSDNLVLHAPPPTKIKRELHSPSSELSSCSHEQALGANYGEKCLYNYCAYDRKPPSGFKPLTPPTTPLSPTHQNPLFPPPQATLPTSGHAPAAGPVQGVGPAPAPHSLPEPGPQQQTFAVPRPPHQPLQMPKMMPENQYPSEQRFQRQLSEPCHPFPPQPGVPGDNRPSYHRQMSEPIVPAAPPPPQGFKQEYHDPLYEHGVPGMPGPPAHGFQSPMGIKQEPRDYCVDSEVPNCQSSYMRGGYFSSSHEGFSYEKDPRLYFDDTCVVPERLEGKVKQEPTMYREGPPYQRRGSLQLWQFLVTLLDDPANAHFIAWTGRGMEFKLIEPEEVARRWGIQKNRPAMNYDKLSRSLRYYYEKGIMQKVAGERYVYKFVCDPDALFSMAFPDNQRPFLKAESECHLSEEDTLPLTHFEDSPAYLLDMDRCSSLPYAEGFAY
UniProt Q99607: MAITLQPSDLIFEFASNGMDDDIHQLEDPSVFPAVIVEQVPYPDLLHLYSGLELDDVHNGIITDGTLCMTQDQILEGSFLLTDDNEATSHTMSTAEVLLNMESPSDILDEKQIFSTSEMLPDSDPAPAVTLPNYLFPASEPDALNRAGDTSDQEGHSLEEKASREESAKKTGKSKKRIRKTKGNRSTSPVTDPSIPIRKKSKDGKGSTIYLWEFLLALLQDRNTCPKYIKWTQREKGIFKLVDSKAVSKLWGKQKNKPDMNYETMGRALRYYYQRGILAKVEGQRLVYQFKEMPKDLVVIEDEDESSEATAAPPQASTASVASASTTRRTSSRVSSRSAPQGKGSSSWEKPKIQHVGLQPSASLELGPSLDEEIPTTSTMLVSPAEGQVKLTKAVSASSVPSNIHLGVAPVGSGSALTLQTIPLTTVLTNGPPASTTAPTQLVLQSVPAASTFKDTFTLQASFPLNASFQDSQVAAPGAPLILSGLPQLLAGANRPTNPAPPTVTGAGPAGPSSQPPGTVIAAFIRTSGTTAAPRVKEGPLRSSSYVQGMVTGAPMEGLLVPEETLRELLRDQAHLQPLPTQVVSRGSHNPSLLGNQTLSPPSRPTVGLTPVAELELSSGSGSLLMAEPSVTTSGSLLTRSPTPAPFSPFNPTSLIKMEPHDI

Tests used:
Assay in all cases: DAPPL (digital affinity profiling via proximity ligation, sequencing)
Settings in all cases: 10 mM Tris-HCl pH 7.5, 50 mM NaCl, 1 mM DTT, 4% glycerol, room temperature, 30 min; GST-TFs on glutathione beads, 16-mer random dsDNA library, 0.1% …; high values mean tight binding; double strand, one strand shown; scale: fold enrichment (6-mer frequency, TF over GST control)
[1] = molecular target: T1, FLI1 (UniProt Q01543)
T1 sequence: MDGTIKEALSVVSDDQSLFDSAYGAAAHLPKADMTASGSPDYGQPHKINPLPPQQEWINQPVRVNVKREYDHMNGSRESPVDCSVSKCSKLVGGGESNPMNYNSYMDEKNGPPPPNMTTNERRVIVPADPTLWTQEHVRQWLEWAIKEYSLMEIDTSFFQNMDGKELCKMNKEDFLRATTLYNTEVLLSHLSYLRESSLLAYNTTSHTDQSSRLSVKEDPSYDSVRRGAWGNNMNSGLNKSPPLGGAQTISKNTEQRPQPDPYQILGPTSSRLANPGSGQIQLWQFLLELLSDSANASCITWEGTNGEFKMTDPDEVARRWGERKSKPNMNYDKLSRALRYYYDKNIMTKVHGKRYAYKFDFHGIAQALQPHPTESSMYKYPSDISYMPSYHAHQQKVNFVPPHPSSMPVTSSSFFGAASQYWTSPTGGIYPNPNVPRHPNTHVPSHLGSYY

[2] = molecular target: T2, EHF (UniProt Q9NZC4)
T2 sequence: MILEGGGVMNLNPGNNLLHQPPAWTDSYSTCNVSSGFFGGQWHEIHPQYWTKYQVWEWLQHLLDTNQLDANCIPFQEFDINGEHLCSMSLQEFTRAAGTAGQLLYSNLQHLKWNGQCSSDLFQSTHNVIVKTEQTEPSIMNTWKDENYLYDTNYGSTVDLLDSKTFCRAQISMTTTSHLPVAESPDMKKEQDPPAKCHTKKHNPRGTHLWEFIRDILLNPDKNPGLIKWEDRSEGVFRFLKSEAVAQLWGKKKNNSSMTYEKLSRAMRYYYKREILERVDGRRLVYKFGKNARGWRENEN

[3] = molecular target: SPIB (UniProt Q01892)
[4] = molecular target: ETV5 (UniProt P41161)
[5] = molecular target: ELF4 (UniProt Q99607)
[6] = molecular target: T3, ETV2 (UniProt O00321)
T3 sequence: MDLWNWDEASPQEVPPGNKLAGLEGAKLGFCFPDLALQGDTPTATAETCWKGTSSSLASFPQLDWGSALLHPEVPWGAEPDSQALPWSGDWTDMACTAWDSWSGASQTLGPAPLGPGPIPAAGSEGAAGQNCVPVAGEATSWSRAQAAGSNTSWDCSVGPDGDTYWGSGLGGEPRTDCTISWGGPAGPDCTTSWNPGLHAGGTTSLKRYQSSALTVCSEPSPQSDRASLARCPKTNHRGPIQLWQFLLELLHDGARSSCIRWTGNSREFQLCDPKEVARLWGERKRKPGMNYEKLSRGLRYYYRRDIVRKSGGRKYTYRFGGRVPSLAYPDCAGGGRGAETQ

[7] = molecular target: T4, ETV3L (UniProt Q6ZN32)
T4 sequence: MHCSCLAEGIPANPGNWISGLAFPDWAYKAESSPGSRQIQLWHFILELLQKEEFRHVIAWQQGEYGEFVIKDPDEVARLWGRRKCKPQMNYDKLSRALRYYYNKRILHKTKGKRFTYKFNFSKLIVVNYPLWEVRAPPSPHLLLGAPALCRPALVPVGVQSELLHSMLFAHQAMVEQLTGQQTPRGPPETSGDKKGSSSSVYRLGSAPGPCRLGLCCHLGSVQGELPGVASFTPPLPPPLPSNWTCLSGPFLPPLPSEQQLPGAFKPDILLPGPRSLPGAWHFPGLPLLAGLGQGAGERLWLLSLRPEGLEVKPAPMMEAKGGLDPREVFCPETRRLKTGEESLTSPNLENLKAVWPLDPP

Row | Sequence | binding signal [1] | binding signal [2] | binding signal [3] | binding signal [4] | binding signal [5] | binding signal [6] | binding signal [7]
1 | GGGAGC | 0.38 | 0.376 | 0.384 | 0.405 | 0.377 | 0.371 | 0.403
2 | GCAACG | 0.937 | 0.977 | 0.954 | 0.933 | 0.994 | 0.797 | 0.953
3 | CCGAGG | 0.702 | 0.698 | 0.662 | 0.71 | 0.738 | 0.728 | 0.736
4 | GTGTGA | 0.604 | 0.608 | 0.592 | 0.581 | 0.614 | 0.596 | 0.569
5 | GGCAAA | 0.895 | 0.916 | 0.946 | 0.941 | 0.937 | 0.913 | 0.906
6 | GCGGAG | 0.24 | 0.257 | 0.249 | 0.26 | 0.244 | 0.273 | 0.257
7 | AGCCTG | 0.939 | 0.884 | 0.944 | 0.835 | 0.821 | 0.953 | 0.874
8 | TAGGGG | 0.819 | 0.85 | 0.841 | 0.816 | 0.801 | 0.887 | 0.874
9 | GAGTAG | 0.522 | 0.493 | 0.541 | 0.471 | 0.462 | 0.471 | 0.545
10 | GTGATA | 0.718 | 0.656 | 0.713 | 0.669 | 0.69 | 0.587 | 0.695
11 | TGTAGT | 0.924 | 0.948 | 0.851 | 0.917 | 0.895 | 0.776 | 0.852
12 | TTCGGA | 0.735 | 0.708 | 0.728 | 0.794 | 0.7 | 0.712 | 0.791
13 | GGACTG | 0.691 | 0.708 | 0.707 | 0.695 | 0.786 | 0.753 | 0.724
14 | GACAGA | 0.64 | 0.645 | 0.647 | 0.664 | 0.687 | 0.664 | 0.654
15 | AGTCAC | 0.788 | 0.773 | 0.731 | 0.78 | 0.752 | 0.706 | 0.777
16 | GACTAG | 0.709 | 0.737 | 0.735 | 0.692 | 0.77 | 0.83 | 0.732
17 | GGCGCC | 0.736 | 0.639 | 0.708 | 0.653 | 0.747 | 0.752 | 0.722
18 | CAGGCC | 0.744 | 0.751 | 0.656 | 0.706 | 0.763 | 0.748 | 0.717
19 | GAGTGG | 0.637 | 0.668 | 0.585 | 0.633 | 0.628 | 0.678 | 0.631
20 | GCGGTG | 0.547 | 0.565 | 0.566 | 0.525 | 0.577 | 0.573 | 0.527
21 | CGGTGC | 0.694 | 0.71 | 0.709 | 0.712 | 0.738 | 0.645 | 0.724
22 | TCAGGG | 0.886 | 0.806 | 0.891 | 0.815 | 0.892 | 0.799 | 0.833
23 | CAGGCG | 0.267 | 0.261 | 0.266 | 0.264 | 0.263 | 0.26 | 0.293
24 | GGATAG | 0.701 | 0.759 | 0.699 | 0.741 | 0.66 | 0.68 | 0.761
25 | GGCGTG | 0.346 | 0.318 | 0.332 | 0.34 | 0.335 | 0.352 | 0.353
26 | GGCAAC | 0.912 | 0.887 | 0.889 | 0.926 | 0.907 | 0.874 | 0.961
27 | GATAGA | 0.807 | 0.791 | 0.8 | 0.806 | 0.796 | 0.758 | 0.779
28 | GCGAGT | 0.592 | 0.574 | 0.558 | 0.541 | 0.577 | 0.624 | 0.529
29 | TTGGAC | 0.881 | 0.946 | 0.996 | 0.914 | 0.97 | 0.888 | 0.938
30 | CCGTGT | 0.548 | 0.547 | 0.521 | 0.537 | 0.528 | 0.531 | 0.475

Shown with each value named: part of the list above.
GGCAAA
  binding signal [1] = 0.895; binding signal [2] = 0.916; binding signal [3] = 0.946; binding signal [4] = 0.941; binding signal [5] = 0.937; binding signal [6] = 0.913; binding signal [7] = 0.906
TAGGGG
  binding signal [1] = 0.819; binding signal [2] = 0.85; binding signal [3] = 0.841; binding signal [4] = 0.816; binding signal [5] = 0.801; binding signal [6] = 0.887; binding signal [7] = 0.874
